Results on 61 compounds are retold here after PubChem BioAssay AID2685 (National Center for Advancing Translational Sciences (NCATS), 2010).

The assay can be described thus: qHTS Assay for Lipid Storage Modulators in Drosophila S3 Cells.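 On cell number change: cells counted by Cell Tracker Red CMTPX staining in the red channel.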 Conditions: BODIPY lipid droplet fluorescence, 18-24 h; for cell number change: measured here: cell count max response, cells fed with added oleic acid. The essentials:
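Laser-scanning cytometry quantifies lipid droplet accumulation (500–530 nm total intensity; droplet/cell object ratio) in oleic acid-fed (400 uM added) Drosophila S3 cells treated with a concentration series. 20 uM Triacsin C defined 100% inhibition.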

[1] abbreviates: measured here: cell number channel AC50, cells fed with added oleic acid.
Where [2] appears, read: measured here: lipid fluorescence (Fed channel) AC50, cells fed with added oleic acid.

This is one part of the list. Further columns of the screen follow, without active or inactive calls. Compounds called inactive in the main read-out are mostly missing here. Potencies come from curve fits of mixed quality, noted in brackets.

In the case of `CC1CC(=O)Nc2ccccc2S1(=O)=O` (centres undefined), the cell number change was -67.5%. Under setting [1], the concentration at half-maximal activity (AC50) is 11.6 µM [falling, partial curve].

Consider `CCOC(=O)c1cnn(-c2cc(C(C)(C)C)nc3c(-c4ccccc4)c(C)nn23)c1N`, for which the half-maximal activity concentration (AC50) was 5.8 µM [rising, single point] under setting [1] and 0.58 µM [rising, full curve] under setting [2].

`CCOC(=O)[C@H]1[C@H]2COc3ccc(Br)cc3[C@@H]2N2C(=O)CN(Cc3ccc(OC)cc3)C(=O)[C@@]12C`: the cell number change is -37.4%. In addition, the AC50 under setting [1] is 29.1 µM [falling, single point].

Turning to `O=C1c2ccccc2C(=O)N1OS(=O)(=O)c1ccc(F)cc1`, the cell number change is -8.66%. Further, the AC50 under setting [2] is 2.91 µM [falling, partial curve, poor fit].

Turning to `COCCCNC(=O)CN(Cc1ccc(Cl)cc1)S(C)(=O)=O`, the cell number change is -9.31%. Besides, the AC50 under setting [2] was 0.0058 µM [falling, full curve, poor fit].

Consider `N#Cc1c(C(F)(F)F)cc(-c2ccco2)nc1SCc1ccncc1`, for which the cell number change is -5.29%.

In the case of `CSCCC(NC(=O)c1ccco1)C(=O)OCc1cc([N+](=O)[O-])cc2c1OCOC2` (centres undefined), the cell number change is -1.9%. Under setting [2], the AC50 was 5.8 µM [falling, partial curve, poor fit].

On to `O=[N+]([O-])c1ccc(Nc2ccccc2O)c2nonc12`, for which the cell number change is 9.47%. Further, under setting [2], the AC50 is 23.1 µM [falling, partial curve].

As to `CC1CC(C)CN(C(=O)Cn2nnc(-c3ccc(Br)cc3)n2)C1` (centres undefined), the cell number change is -2.56%.

As to `Cc1c(C)c2cccnc2c2ncccc12`, the cell number change was -14.7%. Further, the AC50 under setting [2] was 0.461 µM [falling, partial curve].

Consider `Cc1cc(=O)n2nc(N3CCC(C(=O)NCc4ccccc4F)CC3)sc2n1`, for which the AC50 under setting [2] was 5.17 µM [rising, single point].

Turning to `CN(C)C(=O)c1sccc1Oc1ccc(F)cc1[N+](=O)[O-]`, the cell number change was -9.09%.

As for `COc1ccc(-c2cn[nH]c2C)cc1OC`, the cell number change was -1.84%. Also, the AC50 under setting [2] was 29.1 µM [rising, single point].

As for `COc1ccc(C(=O)N/N=C/c2ccc(OC)c(CN3CCCc4ccccc43)c2)cc1`, the cell number change is -6.48%. The AC50 under setting [2] is 0.291 µM [rising, partial curve].

Consider `Cc1ccccc1NC(=O)NC1(C(=O)NCC2CCCO2)CCCCC1` (centres undefined), for which the cell number change came out at 9.01%.

For `CCOC(=O)N1CCN(C(=O)c2ccc(S(=O)(=O)NCc3ccco3)cc2)CC1`, the cell number change was -2.4%. The AC50 under setting [1] is 0.0058 µM [falling, full curve, poor fit]. Under setting [2], the AC50 was 0.00461 µM [falling, full curve, poor fit].

Consider `C=C(C)C1CC=C(C)/C(=N/NC(=O)COc2ccccc2C)C1` (centres undefined), for which the cell number change was 4.59%. In addition, under setting [2], the AC50 was 2.06 µM [rising, single point].

On to `CCOC(=O)C1=NNC2(c3ccc(Cl)cc3)C(=O)N(c3ccc(C)cc3)C(=O)C12` (centres undefined), for which the cell number change amounted to 30%. Moreover, the AC50 under setting [2] was 0.116 µM [falling, full curve, poor fit].

On to `Cc1c(NC(=O)c2ccc3ncccc3c2)c(=O)n(-c2ccccc2)n1C`, for which the cell number change was 18.7%. Under setting [2], the AC50 is 6.51 µM [falling, single point].

For the compound `CCOc1ccc(C(=O)N2CCN(c3ccccn3)CC2)cc1OCC`, the cell number change is -1.35%.

On to `COc1ccc(C(=O)NCC(=O)OCC(=O)N2CCc3ccccc32)cc1`, for which the cell number change stood at 2.44%. Moreover, the AC50 under setting [2] is 0.461 µM [falling, single point].

For the compound `CCOC(=O)c1nc2c(ccc3ccccc32)cc1C`, the cell number change is 14.2%.

For `NC(N)=Nc1nc(-c2ccccc2)c2cc(F)ccc2n1`, the cell number change amounted to 41.9%. The AC50 under setting [1] is 2.31 µM [rising, full curve].

For the compound `Cn1c(=O)c2c(ncn2CC(=O)OCC(=O)NCc2ccccc2Cl)n(C)c1=O`, the cell number change was -18.6%. Also, the AC50 under setting [2] is 0.13 µM [falling, full curve, poor fit].

With `Cc1ccc(S(=O)(=O)N(C)C)cc1NC(=O)COC(=O)CCCOc1ccccc1`, the cell number change is 9.26%. Moreover, under setting [2], the AC50 was 22.4 µM [rising, single point].

As to `CC(C)CC(=O)NC(=S)Nc1ccc(N2CCN(C(=O)c3cccs3)CC2)cc1`, the cell number change is -28.7%.

As to `Cc1ccc(N2C(=O)c3n[nH]c(C)c3C2c2ccco2)cc1` (centres undefined), the AC50 under setting [1] was 6.51 µM [rising, single point].

On to `NS(=O)(=O)c1ccc(NC(=O)COC(=O)c2ccco2)cc1`, for which the cell number change is -2.03%.

Take `Cc1ccc(C)c(S(=O)(=O)N2CCCOC2CNC(=O)C(=O)NC2CCCCC2)c1` (centres undefined): the cell number change was 14%. For the same compound, the AC50 under setting [2] is 0.058 µM [falling, full curve, poor fit].

As to `COc1ccc(NC(=O)c2cc3ccc(O)cc3o/c2=N\O)cc1`, the cell number change is -32%. Moreover, under setting [1], the AC50 is 16.4 µM [falling, single point]. Further, under setting [2], the AC50 was 14.6 µM [falling, partial curve].

On to `O=C(Nc1ccc2c(c1)OCCO2)C1CCCC1`, for which the cell number change is -5.84%. The AC50 under setting [1] was 1.84 µM [rising, partial curve, poor fit].

In the case of `COc1ccc(NC(=O)CCCC(=O)c2ccccc2)cc1`, the cell number change is 9.33%.

As to `CC(C(=O)OCC(=O)N(C)C1(C#N)CCCCC1)N1C(=O)c2ccccc2C1=O` (centres undefined), the cell number change was 9.73%. Moreover, the AC50 under setting [2] is 1.64 µM [falling, partial curve].

As to `Cc1nc(C(=O)N(C)C)nn1-c1ccc(Cl)cc1Cl`, the cell number change was -7.16%. Besides, the AC50 under setting [2] was 4.11 µM [falling, single point].

For `CC(=O)Oc1cccc(C(=O)Nc2ccccc2NC(=O)c2cccc(OC(C)=O)c2)c1`, the cell number change is -31.9%. Besides, the AC50 under setting [1] was 0.651 µM [falling, full curve, poor fit].

With `Cc1ccccc1NS(=O)(=O)c1ccc(C)c(NS(C)(=O)=O)c1C`, the cell number change is -23.2%. Besides, the AC50 under setting [1] was 0.92 µM [falling, full curve, poor fit]. Also, the half-maximal activity concentration (AC50) under setting [2] was 1.16 µM [falling, full curve].

Turning to `COC(=O)c1c(C)[nH]c(C(=O)C(C)OC(=O)C2CC2C)c1C` (centres undefined), the cell number change was -1.48%. Also, the AC50 under setting [2] is 29.1 µM [rising, single point].

As to `CCN1/C(=C/c2ccc3cc(C)ccc3[n+]2C)Sc2ccc3sccc3c21`, the cell number change was -10.6%. Further, under setting [1], the AC50 was 2.06 µM [falling, partial curve]. Under setting [2], the AC50 is 1.3 µM [falling, full curve].

For `CNS(=O)(=O)c1cc(OCC(N)=O)c(C)cc1Cl`, the cell number change was -6.22%. Further, under setting [2], the concentration at half-maximal activity (AC50) is 0.146 µM [rising, full curve, poor fit].

With `O=C(Nc1ccc(Cl)c(S(=O)(=O)Nc2ccccc2Cl)c1)c1cccs1`, the cell number change amounted to 57%. For the same compound, the AC50 under setting [1] was 9.2 µM [rising, partial curve]. Under setting [2], the AC50 was 8.2 µM [rising, partial curve].

For the compound `CC(=O)Nc1ccc(OC(=O)c2cccnc2)cc1`, the cell number change is 15.2%. The AC50 under setting [2] is 3.66 µM [falling, single point].

Turning to `N#C/C(=C/c1ccc(O)cc1)C(=O)NCc1ccc(Cl)cc1`, the cell number change came to 30.3%. Besides, the AC50 under setting [1] is 0.058 µM [rising, full curve, poor fit]. Moreover, the AC50 under setting [2] was 1.58 µM [falling, full curve].

Turning to `COc1ccc(C(CNC(=O)c2ccc(Cl)c(NC(=O)c3cccs3)c2)N2CCCC2)cc1` (centres undefined), the cell number change worked out at 101%. Further, under setting [1], the AC50 was 20.6 µM [rising, single point].

Regarding `COc1ccccc1N1CCN(C(=O)CSc2nnc3c4ccccc4nc(Cc4ccccc4)n23)CC1`, the cell number change was found to be 5.61%. Moreover, under setting [2], the AC50 was 0.0517 µM [rising, full curve, poor fit].

With `CCCN(CCC)C(=O)Cn1c2ccccc2c2nc(=O)cc(C)n21`, the cell number change was determined as 0.659%. Besides, the AC50 under setting [2] was 0.116 µM [falling, full curve, poor fit].

Take `CC(=O)Nc1ccc2c(c1)nc(C)n2Cc1ccccc1`: the cell number change came to 9.85%. For the same compound, under setting [2], the AC50 was 29.1 µM [rising, single point].

Turning to `COc1cc(/C=N\NC(=O)c2ccc(Cn3nc([N+](=O)[O-])c(Cl)c3C)o2)ccc1O`, the cell number change was 78.9%. Under setting [1], the AC50 was 10.3 µM [rising, partial curve]. Also, under setting [2], the AC50 was 6.51 µM [rising, single point].

Regarding `CCOC(=O)C1=C(c2cccc(Oc3ccccc3)c2)NC(=S)NC1C` (centres undefined), the cell number change is -2.34%.

On to `O=C(NCc1nc2ccccc2[nH]1)c1ccc(Cl)c(S(=O)(=O)N2CCCC2)c1`, for which the AC50 is, setting by setting: under setting [1], 4.61 µM [rising, partial curve, poor fit]; under setting [2], 6.51 µM [rising, partial curve, poor fit].

Turning to `COC(=O)N/N=C/c1ccc(Oc2ccccc2)cc1`, the cell number change worked out at 28.4%. Moreover, the AC50 under setting [2] was 0.58 µM [falling, single point].

On to `c1ccc(Cc2ccc(OCCCNC3CCCC3)cc2)cc1`, for which the cell number change was -23.8%. In addition, the AC50 under setting [2] was 1.16 µM [falling, single point].

Consider `O=S(=O)(c1ccc(C2CCCCC2)cc1)N1CCCC1`, for which the cell number change worked out at 10%. Also, the AC50 under setting [1] is 0.013 µM [falling, full curve, poor fit]. For the same compound, under setting [2], the AC50 was 0.366 µM [falling, full curve].

As to `CN(c1ccccc1)S(=O)(=O)c1ccc(NC(=S)Nc2ccccc2)cc1`, the cell number change is -7.34%.

On to `Cc1ccc(C2=NN=C(NC(=O)CSc3nnc4c5ccccc5n(C)c4n3)SC2)cc1`, for which the cell number change was 19.5%. Further, the AC50 under setting [2] is 29.1 µM [rising, single point].

With `CCc1ccc(OCc2nnc(SCCN3CCOCC3)n2CC)cc1`, the cell number change is -2.09%. Also, under setting [2], the AC50 was 18.4 µM [rising, single point].

Regarding `O=C(NCCCNC(=O)c1cccs1)c1cccs1`, the cell number change is -10.7%. Moreover, under setting [2], the AC50 was 0.0164 µM [falling, full curve].

As to `O=C(CCC(=O)Nc1nnc(C2CCCCC2)s1)Nc1ccc(F)cc1`, the cell number change stood at 42.7%. Besides, under setting [1], the AC50 was 18.4 µM [rising, single point]. In addition, the AC50 under setting [2] is 0.58 µM [falling, single point].

Regarding `Cc1cc(NC(=O)CN(C)S(=O)(=O)c2cnc[nH]2)ccc1Br`, the cell number change stood at 20%. Further, under setting [2], the AC50 is 0.58 µM [rising, single point].

For the compound `CC1(C)Cc2c(C#N)c(N3CCCC3)nc(-c3ccco3)c2CO1`, the cell number change was -32.9%. In addition, under setting [1], the AC50 is 3.26 µM [falling, single point].

For the compound `CC1CC(C)CN(S(=O)(=O)c2ccc3c(c2)CCN3C(=O)C2CC2)C1` (centres undefined), the cell number change is -7.98%. Moreover, under setting [2], the AC50 was 29.1 µM [rising, single point].

With `CCNC(=S)Nc1ccc(N2CCCCC2)cc1`, the cell number change is -30.4%. In addition, the AC50 under setting [1] was 0.184 µM [falling, full curve, poor fit]. The AC50 under setting [2] was 0.206 µM [falling, full curve, poor fit].
